The values below come from publication PMC7550686.

Assay in all cases: two-hybrid; AFP2 and truncations as LexA DBD baits, SnRK1α1 as B42 AD prey; mated yeast scored on LacZ (X-gal) and LEU (leu-) reporters in parallel, 4 days
Test [1] addresses AFP2EAR truncation fused to the LexA DNA binding domain (Arabidopsis thaliana).
The target in test [2] is AFP2B truncation fused to the LexA DNA binding domain (Arabidopsis thaliana).
Test [3] addresses AFP2C truncation fused to the LexA DNA binding domain (Arabidopsis thaliana).

These are yes or no findings as the source states them, for the method shown. For part of these data: A result given as binding can be weak or reduced; the word gives no strength. Sequences can lack the tags named with a protein.

B1: SnRK1α1 fused to the B42 activation domain (enzyme, UniProt Q38997 1-512)
chain: MDGSGTGSRSGVESILPNYKLGRTLGIGSFGRVKIAEHALTGHKVAIKILNRRKIKNMEMEEKVRREIKILRLFMHPHIIRLYEVIETPTDIYLVMEYVNSGELFDYIVEKGRLQEDEARNFFQQIISGVEYCHRNMVVHRDLKPENLLLDSKCNVKIADFGLSNIMRDGHFLKTSCGSPNYAAPEVISGKLYAGPEVDVWSCGVILYALLCGTLPFDDENIPNLFKKIKGGIYTLPSHLSPGARDLIPRMLVVDPMKRVTIPEIRQHPWFQAHLPRYLAVPPPDTVQQAKKIDEEILQEVINMGFDRNHLIESLRNRTQNDGTVTYYLILDNRFRASSGYLGAEFQETMEGTPRMHPAESVASPVSHRLPGLMEYQGVGLRSQYPVERKWALGLQSRAHPREIMTEVLKALQDLNVCWKKIGHYNMKCRWVPNSSADGMLSNSMHDNNYFGDESSIIENEAAVKSPNVVKFEIQLYKTRDDKYLLDLQRVQGPQFLFLDLCAAFLAQLRVL
Turning to B1, the binding result in test [1] is “no binding”; in test [2], “binds”; in test [3] it was “binds”.
